At least one structure is not confirmed: it was looked up by name or label, or the drawing left a doubt.
Test system: feline asthma
Test: Treatment of asthma in a tiger cub
Type: in vivo, Bengal Tiger
Conditions: added to existing regimen
Method: Respiratory problems were first noticed in Kaasha, a female Bengal Tiger cub at the Dreamworld park, Australia, at the age of 10 weeks and around 10 kg body weight.
Approximately three weeks after initial clinical signs, the treatment included Clavulox (7 mg/kg administered subcutaneously), doxycycline (5 mg/kg administeredorally), and enrofloxacin (5 mg/kg administered subcutaneously) and terbutaline (0.3 mg/kg administered orally), nebulisation (saline) and percussion, use of Ventolin 100 μg by puffer inhalation and terbutaline (0.3 mg/kg administered orally) as necessary to control dyspnoea. Prednisolone was given as a single daily dose of 2 mg/kg, and Seretide (Salmeterol 50 μg plus fluticasone 250 μg) was given using a mask and spacer. […] This combination of treatment was maintained over the next month.
Consequently an experimental technique involving direct injection of Prednisolone sodium succinate, 1200 mg in a total volume of 30 ml (40 mg/ml aqueous solution), was instilled into the trachea under general anaesthesia.
Three weeks after the intra-airway steroid procedure, another experimental therapy was applied. […] (1) were administered at a dose rate of 0.3 mg/kg as single daily subcutaneous injections for six days, followed by twice-weekly injections for 8 weeks. […]

Structure (SMILES): CC(C)(O)c1ccccc1CC[C@@H](SCC1(CC(=O)O)CC1)c1cccc(/C=C/c2ccc3ccc(Cl)cc3n2)c1 [Singulaire, montelukast sodium]
- clinical signs after addition of further medication: not associated with a noticeable improvement in clinical signs
